Experimental data published in article PMC11827857.
Numbering of substitutions follows the chain as printed. These are yes or no findings as the source states them, for the method shown. In cells and extracts the contact can be indirect. Some binding calls cover weakened binding; strength is not graded here. For part of these data: Tags and fused reporters may be left off the sequences shown.

What was measured:
[1] = target: T1, WT SPP with a C-terminal 3×FLAG tag (human) (UniProt Q8TCT9); assay: co-IP; 3xFLAG-tagged WT or D265A SPP precipitated with anti-FLAG beads from clonal SPP KO HEK293 T-Rex Flip In cells expressing CYP51A1TM; 1% DMNG lysis buffer (50 mM Tris-HCl pH 7.5, 150 mM NaCl), 4°C; empty vector as control; immunoblot
T1 sequence: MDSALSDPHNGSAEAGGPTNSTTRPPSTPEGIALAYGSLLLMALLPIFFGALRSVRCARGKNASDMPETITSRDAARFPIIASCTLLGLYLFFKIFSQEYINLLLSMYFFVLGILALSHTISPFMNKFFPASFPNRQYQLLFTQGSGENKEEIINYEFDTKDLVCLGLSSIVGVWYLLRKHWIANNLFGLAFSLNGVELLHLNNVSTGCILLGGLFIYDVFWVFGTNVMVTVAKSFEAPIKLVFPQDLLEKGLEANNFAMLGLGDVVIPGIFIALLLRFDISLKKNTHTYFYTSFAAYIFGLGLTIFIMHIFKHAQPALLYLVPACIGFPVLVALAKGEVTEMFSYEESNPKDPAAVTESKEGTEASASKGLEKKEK

[2] = target: T2, catalytically inactive SPP (D265A) with a C-terminal 3×FLAG tag (human) (UniProt Q8TCT9); assay: as above
T2 sequence: T1 sequence with D265A

[3] = target: T3, signal peptide peptidase (SPP, encoded by HM13), endogenous (human (endogenous in HEK293 T-Rex Flip In)) (UniProt Q8TCT9); assay: co-IP; endogenous SPP immunoprecipitated with anti-SPP antibody on Protein-G magnetic beads from HEK293 T-Rex Flip In cells expressing CYP51A1TM; 1% DMNG lysis buffer (50 mM Tris-HCl pH 7.5, 150 mM NaCl), 4°C; rabbit IgG as negative control; immunoblot
T3 sequence: T1 sequence

Measured: binding

B1: lanosterol demethylase CYP51A1, endogenous (enzyme, UniProt Q16850 1-509)
chain: MAAAAGMLLLGLLQAGGSVLGQAMEKVTGGNLLSMLLIACAFTLSLVYLIRLAAGHLVQLPAGVKSPPYIFSPIPFLGHAIAFGKSPIEFLENAYEKYGPVFSFTMVGKTFTYLLGSDAAALLFNSKNEDLNAEDVYSRLTTPVFGKGVAYDVPNPVFLEQKKMLKSGLNIAHFKQHVSIIEKETKEYFESWGESGEKNVFEALSELIILTASHCLHGKEIRSQLNEKVAQLYADLDGGFSHAAWLLPGWLPLPSFRRRDRAHREIKDIFYKAIQKRRQSQEKIDDILQTLLDATYKDGRPLTDDEVAGMLIGLLLAGQHTSSTTSAWMGFFLARDKTLQKKCYLEQKTVCGENLPPLTYDQLKDLNLLDRCIKETLRLRPPIMIMMRMARTPQTVAGYTIPPGHQVCVSPTVNQRLKDSWVERLDFNPDRYLQDNPASGEKFAYVPFGAGRHRCIGENFAYVQIKTIWSTMLRLYEFDLIDGYFPTVNYTTMIHTPENPVIRYKRRSK
binds: all assays above
